Results taken from PMC5386385.
Results are given in words; binding and its absence hold for the method and conditions named. Some results given as binding are weak or reduced against the parent protein; the word gives no strength.

By UniProt entry, the sequences of proteins in these tests, tags left out. Residues count along the entry.
UniProt Q07820, residues 173-329: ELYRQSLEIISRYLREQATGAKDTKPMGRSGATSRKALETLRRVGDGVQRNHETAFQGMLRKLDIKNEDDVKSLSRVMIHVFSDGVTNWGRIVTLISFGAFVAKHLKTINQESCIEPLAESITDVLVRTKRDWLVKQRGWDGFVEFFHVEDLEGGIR

T1: BAK (human (endogenous in H1299)), Q16611
T1 chain: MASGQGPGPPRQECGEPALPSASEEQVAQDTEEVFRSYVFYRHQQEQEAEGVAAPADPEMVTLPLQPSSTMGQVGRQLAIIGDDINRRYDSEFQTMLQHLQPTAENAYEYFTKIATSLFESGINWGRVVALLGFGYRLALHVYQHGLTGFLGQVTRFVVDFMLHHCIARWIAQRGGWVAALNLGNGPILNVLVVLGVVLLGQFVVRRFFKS


Tests used:
[1] = target: T1, BAK (human (endogenous in H1299)), …; test: SEC; H1299 cells exposed to A-1210477 (10 uM), A-1331852 (100 nM) or both; CHAPS lysate on Superose 6 and Superdex S200, fractions immunoblotted (that Figure 4d was done in this way is not said in so many words); conditions: remark: other sources report otherwise
[2] = target: WT MCL-1 fusion protein (N-terminal His6-tag fused to amino acids Glu173-Arg329, containing the BH3, BH1 and BH2 domains) (human) (UniProt Q07820); test: differential scanning fluorimetry (thermal shift assay); purified MCL-1 proteins (10 uM) with or without the indicated concentrations of ligand, Sypro-Orange, thermal ramping 0.3 °C per min between 25 and 94 °C, final DMSO 4% v/v; ΔTm against buffer without peptide; both purified

| binding [1] | binding [2] | Binder |
| --- | --- | --- |
|  | no binding | EQWAREIGAQARRMAADLNA [PUMA-2A peptide (a negative control)] |
|  | no binding | WSSAAQLTAARLKALGDELHQ [HRK peptide] |

Second part, the binder before the results:

| Binder | binding [1] | binding [2] |
| --- | --- | --- |
| BAK, Q16611 1-211 (protein) MASGQGPGPPRQECGEPALPSASEEQVAQDTEEVFRSYVFYRHQQEQEAEGVAAPADPEMVTLPLQPSSTMGQVGRQLAIIGDDINRRYDSEFQTMLQHLQPTAENAYEYFTKIATSLFESGINWGRVVALLGFGYRLALHVYQHGLTGFLGQVTRFVVDFMLHHCIARWIAQRGGWVAALNLGNGPILNVLVVLGVVLLGQFVVRRFFKS | binds |  |
| LWAAQRYGRELRRMSDEFEGSFKGL [BAD peptide] |  | no binding |
